Publication PMC9289467, “A Novel Multifunctional 5,6-Dimethoxy-Indanone-Chalcone-Carbamate Hybrids Alleviates Cognitive Decline in Alzheimer’s Disease by Dual Inhibition of Acetylcholinesterase and Inflammation” (Frontiers in Aging Neuroscience, 2022)

System: hippocampal gene expression
Test: Bulk RNA-seq of hippocampal tissues
Assay type: in vivo
Settings: hippocampus, AP5-treated vs untreated APP/PS1 mice
Protocol: APP/PS1 mice of ages 6 months were randomly divided into vehicle (APP/PS1, n = 10) and treatment groups (AP5, n = 10), which were intragastrically administered with AP5 (40 mg/kg) once daily for consecutive 5 months. AP5 was dissolved in distilled water containing 1% sodium carboxymethyl cellulose.
Hippocampal specimens from WT, APP/PS1, and AP5 mice stored in dry ice were sent to Beijing Genomics Institute (Wuhan, China), and the total RNA was extracted for RNA sequencing on BGISEQ-500 system. Moreover, the differentially expressed genes between APP/PS1 and AP5 were analyzed after RNA sequencing.

For `CCN(C)C(=O)Oc1cccc(/C=C2\Cc3cc(OC)c(OC)cc3C2=O)c1` [AP5, (E)-3-((5,6-dimethoxy-1-oxo-1,3-dihydro-2H-inden-2-ylidene)-methyl)phenylethyl(methyl)carbamate], the differentially expressed genes was 933 genes, the induced genes was 425 genes and the suppressed genes was 508 genes.
